# Experimental data: PubChem BioAssay AID1159578 (Peter MacCallum Cancer Centre, 2015)
# Purpose: 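Genome-wide hunt for genes controlling movement of lymphatic endothelial cells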 (primary screen)
# System: human lymphatic endothelial cells
# Reagents: siRNA pool against human genes, 40 nM
# Duration: 48 h after transfection
# Measured: 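Cells stained with dye and imaged after a scratch; covered wound area and nuclei counted, duplicates averaged, migration set against mock wells and turned into a robust z-score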
# Scale: migration robust z-score: higher = faster migration into the scratch; migration relative to mock: higher = more scratch area covered than mock; nuclei per well: higher = more cells in the well
# Hit rule: 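Pools averaging fewer than 3300 nuclei are never called; remaining pools count as changed when migration robust z lies outside -2 to 2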
# Calls: active = migration changed; inactive = no migration change, or too few cells
# Here is one part, drawn at random, of about 18,000 reagents. About 1,030 of all reagents (5.7%) count as active. 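Inactive calls also include pools with fewer than 3300 nuclei, whose migration was not assessed.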 Raw values are not corrected between plates.
Gene,migration robust z-score,migration class with cell-count check,migration relative to mock,"nuclei per well, duplicate mean",Call
RFXANK,0.57,migration z between -2 and 2; enough cells,0.92,4998,inactive
BMERB1,0.49,migration z between -2 and 2; enough cells,1.02,4744,inactive
VARS2,1.4,migration z between -2 and 2; enough cells,1.25,7727,inactive
TARBP2,-1.28,migration z between -2 and 2; enough cells,0.55,5796,inactive
UPB1,-0.39,migration z between -2 and 2; enough cells,0.73,6052,inactive
POR,1.06,migration z between -2 and 2; enough cells,1.01,5236,inactive
MMP20,0.44,migration z between -2 and 2; enough cells,0.89,5012,inactive
FAM9A,-0.57,migration z between -2 and 2; enough cells,0.74,4692,inactive
CDV3,-0.28,migration z between -2 and 2; enough cells,0.81,6473,inactive
CLDN8,0.52,migration z between -2 and 2; enough cells,1.02,5864,inactive
MPP7,-0.38,migration z between -2 and 2; enough cells,0.73,5733,inactive
HELT,-0.02,migration z between -2 and 2; enough cells,0.88,5096,inactive
C14orf39,1.21,migration z between -2 and 2; enough cells,1.2,6546,inactive
ACTN2,1.03,migration z between -2 and 2; enough cells,1,4128,inactive
SCOC,0.64,migration z between -2 and 2; enough cells,1.05,6726,inactive
RGS7BP,1.9,migration z between -2 and 2; enough cells,1.38,5942,inactive
RSL1D1,1,migration z between -2 and 2; enough cells,1.15,6014,inactive
FOSL1,0.02,migration z between -2 and 2; enough cells,0.81,4833,inactive
ARSG,-1.3,migration z between -2 and 2; enough cells,0.56,4262,inactive
POLR3F,-1.86,migration z between -2 and 2; enough cells,0.4,6310,inactive
NHP2,0.42,migration z between -2 and 2; enough cells,0.99,4888,inactive
CLBA1,-0.7,migration z between -2 and 2; enough cells,0.7,6973,inactive
HCK,0.02,migration z between -2 and 2; enough cells,0.81,5308,inactive
